Test results: patent publication US7560564B2, “Heterocyclic diamide invertebrate pest control agents” (E.I. du Pont de Nemours and Company, priority 2001, dated 2009)
Some results were stated once for a whole list of compounds, not compound by compound.

What was measured:
Assay type in all cases: in vivo
[1] = system: diamondback moth (Plutella xylostella); test: Test A: control of diamondback moth on radish plant, foliar spray; conditions: sprayed at 250 ppm, held 6 days, visually assessed, ratings of 0-1
[2] = system: fall armyworm (Spodoptera frugiperda); test: Test B: control of fall armyworm on corn (maize) plant, foliar spray; conditions: sprayed at 250 ppm, visually rated
[3] = system: tobacco budworm (Heliothis virescens); test: Test C: control of tobacco budworm on cotton plant, foliar spray; conditions: sprayed at 250 ppm, visually rated
[4] = system: beet armyworm (Spodoptera exigua); test: Test D: control of beet armyworm on corn plant, foliar spray; conditions: sprayed at 250 ppm, visually rated

Compound | feeding damage (very good to excellent levels of plant protection) [1] [%] | feeding damage (excellent levels of plant protection) [2] [%] | feeding damage (very good to excellent levels of plant protection) [3] [%] | feeding damage (very good to excellent levels of plant protection) [4] [%]
Cc1csc(C(=O)NC(C)C)c1NC(=O)c1ccc(C(F)(F)F)cc1 [Compound 1] | ≤ 10 |  |  | 
Cc1csc(C(=O)NC(C)(C)C)c1NC(=O)c1ccc(C(F)(F)F)cc1 [Compound 2] | ≤ 10 |  |  | 
Cc1csc(C(=O)NC(C)C)c1NC(=O)c1ccc(OC(F)(F)F)cc1 [Compound 3] | ≤ 10 |  |  | 
Cc1cc(SC(F)F)ccc1C(=O)Nc1c(C)csc1C(=O)NC(C)C [Compound 4] | ≤ 10 |  |  | 
Cc1cc(SC(F)F)ccc1C(=O)Nc1c(C)csc1C(=O)NC(C)(C)C [Compound 5] | ≤ 10 |  |  | 
Cc1csc(C(=O)NC(C)(C)C)c1NC(=O)c1ccc(OC(F)(F)F)cc1 [Compound 6] | ≤ 10 |  |  | 
Cc1cc(S(=O)(=O)C(F)F)ccc1C(=O)Nc1c(C)csc1C(=O)NC(C)C [Compound 7] | ≤ 10 |  |  | 
Cc1cc([S+]([O-])C(F)(F)F)ccc1C(=O)Nc1c(C)csc1C(=O)NC(C)C (stereo not drawn) [Compound 8] | ≤ 10 |  |  | 
Cc1cc(S(=O)(=O)C(F)F)ccc1C(=O)Nc1c(C)csc1C(=O)NC(C)(C)C [Compound 9] | ≤ 10 |  |  | 
Cc1cc(C(F)(F)F)ccc1C(=O)Nc1c(C)csc1C(=O)NC(C)C [Compound 13] | ≤ 10 |  |  | 
Cc1cc(C(F)(F)F)ccc1C(=O)Nc1c(C)csc1C(=O)NC(C)(C)C [Compound 15] | ≤ 10 |  |  | 
Cc1cc(OC(F)(F)F)ccc1C(=O)Nc1c(C)csc1C(=O)NC(C)(C)C [Compound 16] | ≤ 10 |  |  | 
Cc1csc(C(=O)NC(C)C)c1NC(=O)c1ccc(C(F)(F)F)nc1C [Compound 19] | ≤ 10 |  |  | 
Cc1cc(C(=O)Nc2c(C)csc2C(=O)NC(C)C)n(-c2ccccc2)n1 [Compound 21] | ≤ 10 |  |  | 
Cc1cc(C(=O)Nc2c(C)csc2C(=O)NC(C)(C)C)n(-c2ccccc2)n1 [Compound 22] | ≤ 10 |  |  | 
Cc1csc(C(=O)NC(C)C)c1NC(=O)c1ccc(Cl)nc1C [Compound 23] | ≤ 10 |  |  | 
Cc1csc(C(=O)NC(C)(C)C)c1NC(=O)c1ccc(Cl)nc1C [Compound 24] | ≤ 10 |  |  | 
CNC(=O)c1scc(C)c1NC(=O)c1cc(C(F)(F)F)nn1-c1ccccc1Cl [Compound 35] |  | ≤ 10 | ≤ 20 | 
CNC(=O)c1sc(Cl)c(Cl)c1NC(=O)c1cc(C(F)(F)F)nn1-c1ccccc1Cl [Compound 36] | ≤ 10 | ≤ 10 | ≤ 20 | 
CC(C)NC(=O)c1sc(Cl)c(Cl)c1NC(=O)c1cc(C(F)(F)F)nn1-c1ccccc1Cl [Compound 37] | ≤ 10 |  | ≤ 20 | 
Cc1cc(SC(F)F)ccc1C(=O)Nc1c(C(=O)NC(C)C)csc1C [Compound B1] | ≤ 10 |  |  | 
Cc1nc(C(F)(F)F)ccc1C(=O)Nc1c(C(=O)NC(C)C)csc1C [Compound B5] | ≤ 10 |  |  | 

Compound | feeding damage (very good to excellent levels of plant protection) [1] [%] | feeding damage (excellent levels of plant protection) [2] [%] | feeding damage (very good to excellent levels of plant protection) [3] [%] | feeding damage (very good to excellent levels of plant protection) [4] [%]
CNC(=O)c1csc(C)c1NC(=O)c1cc(C(F)(F)F)nn1-c1ccccc1Cl [Compound B10] |  | ≤ 10 |  | 
Cc1scc(C(=O)NC(C)C)c1NC(=O)c1cc(C(F)(F)F)nn1-c1ccccc1Cl [Compound B11] | ≤ 10 | ≤ 10 |  | 
CC(C)NC(=O)c1cnn(C)c1NC(=O)c1ccc(F)cc1 [Compound C1] | ≤ 10 |  |  | 
CC(C)NC(=O)c1cnn(C)c1NC(=O)c1ccc(Br)cc1 [Compound C2] | ≤ 10 |  |  | 
CC(C)NC(=O)c1cnn(C)c1NC(=O)c1ccc(Cl)cc1 [Compound C3] | ≤ 10 |  |  | 
CC(C)NC(=O)c1cnn(C)c1NC(=O)c1ccc(C(F)(F)F)cc1 [Compound C7] | ≤ 10 |  |  | 
CC(C)NC(=O)c1cnn(C)c1NC(=O)c1ccc(OC(F)(F)F)cc1 [Compound C9] | ≤ 10 |  |  | 
Cc1cncc(C(=O)NC(C)C)c1NC(=O)c1ccc(C(F)(F)F)cc1 [Compound D1] | ≤ 10 | ≤ 10 | ≤ 20 | ≤ 20
Cc1cncc(C(=O)NC(C)C)c1NC(=O)c1ccc(OC(F)(F)F)cc1 [Compound D3] | ≤ 10 | ≤ 10 |  | ≤ 20
Cc1cc(C(F)(F)F)ccc1C(=O)Nc1c(C)cncc1C(=O)NC(C)C [Compound D4] | ≤ 10 |  | ≤ 20 | ≤ 20
Cc1cc(OC(F)(F)F)ccc1C(=O)Nc1c(C)cncc1C(=O)NC(C)C [Compound D5] | ≤ 10 |  | ≤ 20 | 
Cc1cncc(C(=O)NC(C)C)c1NC(=O)c1ccc(C(F)(F)F)nc1C [Compound D6] | ≤ 10 |  | ≤ 20 | 
Cc1cncc(C(=O)NC(C)C)c1NC(=O)c1cc(C(F)(F)F)nn1-c1ccccc1 [Compound D7] | ≤ 10 | ≤ 10 |  | ≤ 20
Cc1cncc(C(=O)NC(C)C)c1NC(=O)c1cc(C(F)(F)F)nn1-c1ccccc1Cl [Compound D8] | ≤ 10 | ≤ 10 | ≤ 20 | ≤ 20
Cc1cncc(C(=O)N(C)C)c1NC(=O)c1cc(C(F)(F)F)nn1-c1ccccc1Cl [Compound D11] | ≤ 10 | ≤ 10 | ≤ 20 | ≤ 20
CNC(=O)c1cncc(C)c1NC(=O)c1cc(C(F)(F)F)nn1-c1ccccc1Cl [Compound D12] | ≤ 10 |  | ≤ 20 | 
Cc1nccc(C(=O)NC(C)C)c1NC(=O)c1cc(C(F)(F)F)nn1-c1cccnc1Cl [Compound E5] | ≤ 10 | ≤ 10 | ≤ 20 | ≤ 20
Cc1nccc(C(=O)NC(C)C)c1NC(=O)c1cc(C(F)(F)F)nn1-c1ccccc1Cl [Compound E6] | ≤ 10 | ≤ 10 | ≤ 20 | ≤ 20
Cc1nccc(C(=O)NC(C)C)c1NC(=O)c1cc(Br)nn1-c1ccccc1Cl [Compound E7] | ≤ 10 | ≤ 10 | ≤ 20 | ≤ 20
CC(C)NC(=O)c1cc(Cl)nc(Cl)c1NC(=O)c1cc(C(F)(F)F)nn1-c1cccnc1Cl [Compound E15] | ≤ 10 |  | ≤ 20 | ≤ 20
Cc1ccnc(C(=O)NC(C)C)c1NC(=O)c1ccc(C(F)(F)F)cc1 [Compound G1] | ≤ 10 |  |  | ≤ 20
